From the supplement of paper PMC10849652
The list shows a part of the results.

Amino acid sequences for entries named in this document (tags omitted). A change or cut given only in a name is not applied to a line headed by its entry.
UniProt Q6XR72: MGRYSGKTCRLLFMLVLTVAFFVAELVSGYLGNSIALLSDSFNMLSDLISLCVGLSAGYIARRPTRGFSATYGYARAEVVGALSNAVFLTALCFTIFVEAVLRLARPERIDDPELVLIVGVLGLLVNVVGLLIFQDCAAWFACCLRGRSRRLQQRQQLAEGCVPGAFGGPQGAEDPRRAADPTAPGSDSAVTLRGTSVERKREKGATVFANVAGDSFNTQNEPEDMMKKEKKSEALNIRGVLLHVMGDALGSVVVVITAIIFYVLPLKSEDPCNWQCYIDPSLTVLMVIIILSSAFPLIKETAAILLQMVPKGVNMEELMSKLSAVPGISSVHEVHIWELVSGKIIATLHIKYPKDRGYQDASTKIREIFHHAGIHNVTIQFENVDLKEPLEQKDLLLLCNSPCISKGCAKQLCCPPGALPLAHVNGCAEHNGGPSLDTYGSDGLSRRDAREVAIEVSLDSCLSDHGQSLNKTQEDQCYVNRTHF
UniProt P78381: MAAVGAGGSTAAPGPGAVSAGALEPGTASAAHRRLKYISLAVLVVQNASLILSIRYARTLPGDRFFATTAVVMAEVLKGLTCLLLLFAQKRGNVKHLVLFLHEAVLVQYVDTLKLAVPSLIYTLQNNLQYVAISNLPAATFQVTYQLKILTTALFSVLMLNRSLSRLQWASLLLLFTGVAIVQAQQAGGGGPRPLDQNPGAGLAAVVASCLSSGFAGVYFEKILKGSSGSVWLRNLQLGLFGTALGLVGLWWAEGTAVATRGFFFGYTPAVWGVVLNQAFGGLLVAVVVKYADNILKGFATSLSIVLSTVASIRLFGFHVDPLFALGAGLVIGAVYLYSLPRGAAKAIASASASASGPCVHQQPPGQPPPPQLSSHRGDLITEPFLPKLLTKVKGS
UniProt Q6NT16: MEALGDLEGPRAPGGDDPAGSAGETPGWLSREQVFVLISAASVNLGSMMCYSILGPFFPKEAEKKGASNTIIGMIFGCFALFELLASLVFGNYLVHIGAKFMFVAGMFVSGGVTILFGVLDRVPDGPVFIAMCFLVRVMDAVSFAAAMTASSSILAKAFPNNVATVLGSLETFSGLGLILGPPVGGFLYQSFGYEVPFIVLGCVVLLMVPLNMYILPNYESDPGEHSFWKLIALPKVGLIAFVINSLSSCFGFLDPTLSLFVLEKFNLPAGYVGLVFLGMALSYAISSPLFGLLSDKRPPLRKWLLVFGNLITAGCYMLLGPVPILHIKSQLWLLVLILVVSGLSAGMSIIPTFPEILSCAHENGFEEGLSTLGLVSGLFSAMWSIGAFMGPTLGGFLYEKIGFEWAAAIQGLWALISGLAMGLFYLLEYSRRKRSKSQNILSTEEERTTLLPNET
UniProt P43003, whole entry, looked up: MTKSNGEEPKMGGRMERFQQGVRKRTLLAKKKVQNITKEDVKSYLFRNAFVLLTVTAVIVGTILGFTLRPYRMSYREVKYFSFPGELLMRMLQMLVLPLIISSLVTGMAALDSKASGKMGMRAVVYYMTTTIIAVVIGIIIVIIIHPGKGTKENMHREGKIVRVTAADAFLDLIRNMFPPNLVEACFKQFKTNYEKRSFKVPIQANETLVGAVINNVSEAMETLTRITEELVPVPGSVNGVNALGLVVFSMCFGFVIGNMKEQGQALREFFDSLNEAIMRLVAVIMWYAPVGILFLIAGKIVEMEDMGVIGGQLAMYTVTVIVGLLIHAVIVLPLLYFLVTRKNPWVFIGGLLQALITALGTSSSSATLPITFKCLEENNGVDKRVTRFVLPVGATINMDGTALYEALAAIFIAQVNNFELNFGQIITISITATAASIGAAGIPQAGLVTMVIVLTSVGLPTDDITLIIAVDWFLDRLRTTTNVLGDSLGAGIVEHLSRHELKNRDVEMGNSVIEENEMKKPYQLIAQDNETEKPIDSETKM
UniProt Q9BZD2: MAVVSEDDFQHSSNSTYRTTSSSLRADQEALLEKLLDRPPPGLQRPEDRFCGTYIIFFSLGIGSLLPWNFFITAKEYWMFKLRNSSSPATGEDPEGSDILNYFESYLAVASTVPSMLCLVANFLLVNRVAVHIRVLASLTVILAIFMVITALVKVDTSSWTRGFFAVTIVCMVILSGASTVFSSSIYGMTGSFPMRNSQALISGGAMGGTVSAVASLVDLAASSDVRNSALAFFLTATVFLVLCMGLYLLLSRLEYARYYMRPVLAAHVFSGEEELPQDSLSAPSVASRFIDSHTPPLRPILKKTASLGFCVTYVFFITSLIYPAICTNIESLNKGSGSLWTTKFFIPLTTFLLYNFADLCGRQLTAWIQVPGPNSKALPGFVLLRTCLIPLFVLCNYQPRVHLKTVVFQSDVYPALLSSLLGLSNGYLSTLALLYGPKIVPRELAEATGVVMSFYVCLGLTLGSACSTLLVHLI
UniProt Q5SVS4: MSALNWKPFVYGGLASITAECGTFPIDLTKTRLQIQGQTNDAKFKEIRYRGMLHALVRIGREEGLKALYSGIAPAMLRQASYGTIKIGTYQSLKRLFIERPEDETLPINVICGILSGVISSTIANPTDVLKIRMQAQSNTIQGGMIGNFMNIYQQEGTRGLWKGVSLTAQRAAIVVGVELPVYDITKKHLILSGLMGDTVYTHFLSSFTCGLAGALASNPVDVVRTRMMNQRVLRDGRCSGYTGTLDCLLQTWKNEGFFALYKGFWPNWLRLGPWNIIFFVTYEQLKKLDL
UniProt Q96QE2: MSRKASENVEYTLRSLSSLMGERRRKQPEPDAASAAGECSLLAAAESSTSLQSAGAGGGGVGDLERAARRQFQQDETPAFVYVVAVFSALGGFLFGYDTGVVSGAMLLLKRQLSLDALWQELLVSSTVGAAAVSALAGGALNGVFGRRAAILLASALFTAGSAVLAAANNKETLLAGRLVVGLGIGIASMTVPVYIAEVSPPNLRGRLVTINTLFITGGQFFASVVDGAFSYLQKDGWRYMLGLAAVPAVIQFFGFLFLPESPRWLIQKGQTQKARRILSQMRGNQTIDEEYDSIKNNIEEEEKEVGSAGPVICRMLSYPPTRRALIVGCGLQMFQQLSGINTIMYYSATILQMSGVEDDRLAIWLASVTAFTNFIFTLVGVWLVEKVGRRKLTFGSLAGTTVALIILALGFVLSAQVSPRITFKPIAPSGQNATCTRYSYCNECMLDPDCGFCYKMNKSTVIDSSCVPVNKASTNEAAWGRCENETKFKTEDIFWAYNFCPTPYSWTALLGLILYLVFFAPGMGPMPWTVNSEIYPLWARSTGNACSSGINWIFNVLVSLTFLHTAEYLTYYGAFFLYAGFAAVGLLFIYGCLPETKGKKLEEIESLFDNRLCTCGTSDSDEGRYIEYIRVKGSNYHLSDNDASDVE
UniProt O15431: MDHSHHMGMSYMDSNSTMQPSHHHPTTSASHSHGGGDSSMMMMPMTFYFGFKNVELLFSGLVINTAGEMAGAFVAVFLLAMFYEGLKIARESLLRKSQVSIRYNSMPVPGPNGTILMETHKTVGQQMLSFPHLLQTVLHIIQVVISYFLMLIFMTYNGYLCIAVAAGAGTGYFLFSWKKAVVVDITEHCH
UniProt Q9BV35: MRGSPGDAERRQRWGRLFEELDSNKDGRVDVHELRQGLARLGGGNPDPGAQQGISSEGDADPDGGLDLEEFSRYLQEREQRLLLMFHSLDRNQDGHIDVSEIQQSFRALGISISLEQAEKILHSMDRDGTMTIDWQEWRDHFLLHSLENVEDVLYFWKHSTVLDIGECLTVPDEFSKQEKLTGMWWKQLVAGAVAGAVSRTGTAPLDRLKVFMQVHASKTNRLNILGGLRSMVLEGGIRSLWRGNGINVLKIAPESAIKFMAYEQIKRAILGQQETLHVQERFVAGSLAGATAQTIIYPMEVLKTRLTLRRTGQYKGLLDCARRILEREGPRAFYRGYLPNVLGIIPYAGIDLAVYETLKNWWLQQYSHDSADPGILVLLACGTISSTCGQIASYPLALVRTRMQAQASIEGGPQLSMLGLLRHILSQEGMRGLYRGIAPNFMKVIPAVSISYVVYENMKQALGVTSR
UniProt Q3KQZ1: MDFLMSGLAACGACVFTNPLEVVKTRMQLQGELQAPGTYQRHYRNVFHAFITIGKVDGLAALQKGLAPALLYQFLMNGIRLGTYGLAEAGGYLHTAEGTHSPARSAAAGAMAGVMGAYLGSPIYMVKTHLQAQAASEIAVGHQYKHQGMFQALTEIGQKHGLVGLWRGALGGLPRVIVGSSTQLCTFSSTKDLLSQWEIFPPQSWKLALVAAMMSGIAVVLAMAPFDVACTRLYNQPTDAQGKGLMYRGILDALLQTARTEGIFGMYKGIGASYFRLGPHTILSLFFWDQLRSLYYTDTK
UniProt Q8NBW4: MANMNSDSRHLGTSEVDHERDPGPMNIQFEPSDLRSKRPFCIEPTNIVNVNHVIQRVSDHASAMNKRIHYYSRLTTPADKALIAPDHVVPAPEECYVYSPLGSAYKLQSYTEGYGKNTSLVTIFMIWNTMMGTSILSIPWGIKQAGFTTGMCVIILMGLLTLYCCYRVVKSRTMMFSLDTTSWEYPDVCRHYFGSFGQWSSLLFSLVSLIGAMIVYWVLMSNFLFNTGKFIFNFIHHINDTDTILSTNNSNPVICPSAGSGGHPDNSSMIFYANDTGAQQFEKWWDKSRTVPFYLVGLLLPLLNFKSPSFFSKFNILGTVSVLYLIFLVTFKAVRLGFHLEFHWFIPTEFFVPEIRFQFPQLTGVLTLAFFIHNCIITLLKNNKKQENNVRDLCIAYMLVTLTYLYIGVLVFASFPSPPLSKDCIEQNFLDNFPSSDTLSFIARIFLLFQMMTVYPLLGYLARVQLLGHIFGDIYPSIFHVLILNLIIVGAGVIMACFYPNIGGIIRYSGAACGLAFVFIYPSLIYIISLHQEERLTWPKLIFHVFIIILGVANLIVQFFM
UniProt Q96CQ1: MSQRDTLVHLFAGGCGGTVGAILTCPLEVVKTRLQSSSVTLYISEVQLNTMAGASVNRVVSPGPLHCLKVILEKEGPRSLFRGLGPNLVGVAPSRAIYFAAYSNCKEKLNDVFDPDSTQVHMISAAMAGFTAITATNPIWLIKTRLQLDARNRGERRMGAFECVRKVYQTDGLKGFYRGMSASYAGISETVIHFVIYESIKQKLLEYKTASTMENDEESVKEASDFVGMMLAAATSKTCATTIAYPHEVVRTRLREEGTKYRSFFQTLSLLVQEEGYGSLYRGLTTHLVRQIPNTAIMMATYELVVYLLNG
UniProt Q695T7: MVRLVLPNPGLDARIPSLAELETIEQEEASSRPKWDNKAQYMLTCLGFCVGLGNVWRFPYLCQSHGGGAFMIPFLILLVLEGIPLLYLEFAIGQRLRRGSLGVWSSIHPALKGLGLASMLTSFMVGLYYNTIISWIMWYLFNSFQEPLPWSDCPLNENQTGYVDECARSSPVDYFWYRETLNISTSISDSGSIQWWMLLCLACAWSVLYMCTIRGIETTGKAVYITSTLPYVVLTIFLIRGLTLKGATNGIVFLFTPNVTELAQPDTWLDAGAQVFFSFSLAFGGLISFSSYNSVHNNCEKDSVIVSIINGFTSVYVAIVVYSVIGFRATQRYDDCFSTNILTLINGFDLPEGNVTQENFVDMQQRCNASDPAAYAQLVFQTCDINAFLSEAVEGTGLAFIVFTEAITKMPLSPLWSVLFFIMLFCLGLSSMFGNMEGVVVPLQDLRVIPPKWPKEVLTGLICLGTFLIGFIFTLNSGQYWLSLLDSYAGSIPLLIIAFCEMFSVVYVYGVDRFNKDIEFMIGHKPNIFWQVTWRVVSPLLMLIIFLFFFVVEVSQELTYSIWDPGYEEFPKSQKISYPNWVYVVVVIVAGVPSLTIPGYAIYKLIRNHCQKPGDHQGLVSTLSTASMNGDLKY
UniProt Q9BS91: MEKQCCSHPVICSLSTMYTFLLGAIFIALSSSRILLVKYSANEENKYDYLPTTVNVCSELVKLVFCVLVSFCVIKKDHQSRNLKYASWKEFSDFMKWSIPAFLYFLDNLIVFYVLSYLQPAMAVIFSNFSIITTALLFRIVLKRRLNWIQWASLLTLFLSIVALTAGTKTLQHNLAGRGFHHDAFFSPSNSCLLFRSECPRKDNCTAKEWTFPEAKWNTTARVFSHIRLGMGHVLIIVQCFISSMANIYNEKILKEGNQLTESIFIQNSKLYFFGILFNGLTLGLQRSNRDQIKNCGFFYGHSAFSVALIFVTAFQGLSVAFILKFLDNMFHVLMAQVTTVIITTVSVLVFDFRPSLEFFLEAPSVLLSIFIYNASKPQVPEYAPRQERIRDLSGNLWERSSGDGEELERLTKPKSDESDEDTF
UniProt P78383: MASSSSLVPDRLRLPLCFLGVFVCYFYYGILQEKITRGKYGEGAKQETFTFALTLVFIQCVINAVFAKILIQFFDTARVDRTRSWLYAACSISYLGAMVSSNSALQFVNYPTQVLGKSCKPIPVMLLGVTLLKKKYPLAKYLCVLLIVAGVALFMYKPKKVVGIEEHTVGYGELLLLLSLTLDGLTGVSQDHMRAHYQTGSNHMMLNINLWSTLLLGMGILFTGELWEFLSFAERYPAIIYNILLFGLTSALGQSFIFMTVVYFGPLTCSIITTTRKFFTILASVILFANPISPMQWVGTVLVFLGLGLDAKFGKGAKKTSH

Tests used:
Test in all cases: log2 fold change, soluble protein after heating vs DMSO (PISA); higher = thermal stabilisation; K562 cells, 10 uM, 30 min; active = over 0.2 and 3.5 SD of the protein, either way, in both replicates (recomputed)
[1] = compound: CC[C@@H]1C(=O)N(C)c2cnc(Nc3ccc(C(=O)NC4CCN(C)CC4)cc3OC)nc2N1C1CCCC1
How it was run: (§1)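 Quantification of soluble protein used TMTpro 16plex LC-MS/MS, with channel sums equalised. Samples were the supernatant after 21,000xg for 90 min of pooled aliquots from K562 cells (2×10^6 cells/mL) treated with 10 μM compound for 30 min, heated for 3 min over 48°C-58°C, and extracted in PBS with 0.5% NP-40 at 4°C. Values, from duplicates, describe thermal stability against control samples on a log2 fold-change scale.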

volasertib = compound: CC[C@@H]1C(=O)N(C)c2cnc(Nc3ccc(C(=O)N[C@H]4CC[C@H](N5CCN(CC6CC6)CC5)CC4)cc3OC)nc2N1C(C)C [volasertib]
How it was run: as §1

[2] = compound: CC[C@H](C)N1C=C(C2=C(C=C(C=C21)C3=CN=C(C=C3)N4CCNCC4)C(=O)NCC5=C(C=C(NC5=O)C)C)C
How it was run: as §1

epoxomicin = compound: CC[C@H](C)[C@@H](C(=O)N[C@@H]([C@@H](C)O)C(=O)N[C@@H](CC(C)C)C(=O)[C@]1(CO1)C)NC(=O)[C@H]([C@@H](C)CC)N(C)C(=O)C [epoxomicin]
How it was run: as §1

[3] = compound: CCn1cc(-c2ccnc3[nH]c(-c4cccc(CN(C)C)c4)cc23)c(-c2ccc(NC(=O)N(C)C)cc2)n1
How it was run: as §1

[4] = compound: CN(C)CC(=O)Nc1ccc2[nH]c(=O)c3ccccc3c2c1
How it was run: as §1

[5] = compound: CN1C2=C(C3=C1C(=O)N(N=C3)CC4=CC(=CC=C4)N)SC(=C2)S(=O)C
How it was run: as §1

[6] = compound: CN1CCC(CNc2ccc3ncc(-c4cccc(OC(F)(F)F)c4)n3n2)CC1
How it was run: as §1

saracatinib = compound: CN1CCN(CCOc2cc(OC3CCOCC3)c3c(Nc4c(Cl)ccc5c4OCO5)ncnc3c2)CC1 [saracatinib]
How it was run: as §1

sotrastaurin = compound: CN1CCN(c2nc(C3=C(c4c[nH]c5ccccc45)C(=O)NC3=O)c3ccccc3n2)CC1 [sotrastaurin]
How it was run: as §1

Tubastatin A = compound: CN1CCc2c(c3ccccc3n2Cc2ccc(C(=O)NO)cc2)C1 [Tubastatin A]
How it was run: as §1

[7] = compound: CNC(=O)C1=CC=CC=C1NC2=NC(=NC=C2Cl)NC3=C(C=C(C=C3)N4CCOCC4)OC
How it was run: as §1

defactinib = compound: CNC(=O)c1ccc(Nc2ncc(C(F)(F)F)c(NCc3nccnc3N(C)S(C)(=O)=O)n2)cc1 [defactinib]
How it was run: as §1

rucaparib = compound: CNCc1ccc(-c2[nH]c3cc(F)cc4c3c2CCNC4=O)cc1 [rucaparib]
How it was run: as §1

[8] = compound: CNc1nc(-c2ccc3c(N)n[nH]c3c2)cc(N2C[C@@H](C(=O)NC3CCCCC3)CC[C@H]2C)n1
How it was run: as §1

encorafenib = compound: COC(=O)N[C@@H](C)CNc1nccc(-c2cn(C(C)C)nc2-c2cc(Cl)cc(NS(C)(=O)=O)c2F)n1 [encorafenib]
How it was run: as §1

[9] = compound: COC(=O)[C@H](CCSC)NC(=O)C1=C(C=C(C=C1)NC[C@H](CS)N)C2=CC=CC=C2
How it was run: as §1

rosiglitazone = compound: CN(CCOC1=CC=C(C=C1)C[C@H]2C(=O)NC(=O)S2)C3=CC=CC=N3 (racemic) [rosiglitazone]
How it was run: as §1

alvocidib = compound: CN1CC[C@H](c2c(O)cc(O)c3c(=O)cc(-c4ccccc4Cl)oc23)[C@H](O)C1 [alvocidib]
How it was run: as §1

[10] = compound: CCn1c(C(=O)N(C2CC2)C2CC2)cc2c3c(ncn3C)c(Nc3cc(C)n(C)n3)nc21
How it was run: as §1

Measured: log2 fold change

SLC12A9 (UniProt Q9BXP2)
inactive: [1] 0.014 | volasertib -0.034 | [2] -0.016 | epoxomicin 0.059 | [3] -0.016 | [4] -0.02 | [5] -0.075 | [6] -0.136 | saracatinib 0.102 | sotrastaurin 0.016 | Tubastatin A -0.09 | [7] -0.016 | defactinib -0.043 | rucaparib -0.073 | [8] -0.068 | encorafenib -0.017 | [9] -0.01

SLC30A10 (UniProt Q6XR72)
inactive: [1] 0 | volasertib -0.052 | [2] -0.052 | epoxomicin 0.045 | [3] -0.244 | [4] -0.028 | [5] -0.087 | [6] 0.044 | saracatinib -0.075 | sotrastaurin 0.031 | Tubastatin A 0.008 | [7] -0.025 | defactinib 0.012 | rucaparib -0.073 | [8] -0.036 | encorafenib 0.001 | [9] -0.011

SLC4A2 (UniProt P04920)
inactive: [1] 0.039 | volasertib -0.071 | [2] -0.044 | epoxomicin 0.029 | [3] -0.028 | [4] 0.022 | [5] 0.035 | [6] -0.018 | saracatinib 0.003 | sotrastaurin -0.029 | Tubastatin A 0.066 | [7] -0.006 | defactinib 0.028 | rucaparib 0.064 | [8] 0.008 | encorafenib 0.085 | [9] -0.067

SLC35A2 isoform 4 (UniProt P78381)
inactive: [1] -0.021 | volasertib 0.035 | [2] 0.006 | epoxomicin -0.098 | [3] 0.001 | [4] -0.064 | rosiglitazone 0.012 | [5] -0.14 | [6] 0.179 | saracatinib 0.03 | sotrastaurin 0.053 | alvocidib -0.052 | Tubastatin A -0.104 | defactinib -0.168 | rucaparib 0.05 | [8] -0.255 | encorafenib 0.061 | [9] 0.108

SLC18B1 (UniProt Q6NT16)
active: [6] -0.592
inactive: [1] 0.031 | volasertib -0.114 | [2] -0.034 | epoxomicin 0.022 | [3] -0.005 | [4] -0.134 | [5] -0.035 | saracatinib 0.021 | sotrastaurin 0.023 | Tubastatin A 0.04 | [7] 0.061 | defactinib 0.094 | rucaparib -0.012 | [8] -0.071 | encorafenib 0.012 | [9] 0.056

SLC1A3 (UniProt P43003)
active: [8] 0.481
inactive: [1] -0.065 | volasertib 0.003 | [2] 0.018 | epoxomicin 0.087 | [3] -0.101 | [4] -0.048 | [5] -0.286 | [6] 0.254 | saracatinib 0.277 | Tubastatin A -0.157 | [7] -0.034 | defactinib -0.013 | rucaparib 0.027 | encorafenib 0.072 | [9] 0.106

Two neighbouring entries already listed, quoted:
SLC35A2 isoform 4 (UniProt P78381)
inactive: [1] -0.021 | volasertib 0.035 | [2] 0.006 | epoxomicin -0.098 | [3] 0.001 | [4] -0.064 | rosiglitazone 0.012 | [5] -0.14 | [6] 0.179 | saracatinib 0.03 | sotrastaurin 0.053 | alvocidib -0.052 | Tubastatin A -0.104 | defactinib -0.168 | rucaparib 0.05 | [8] -0.255 | encorafenib 0.061 | [9] 0.108

SLC18B1 (UniProt Q6NT16)
active: [6] -0.592
inactive: [1] 0.031 | volasertib -0.114 | [2] -0.034 | epoxomicin 0.022 | [3] -0.005 | [4] -0.134 | [5] -0.035 | saracatinib 0.021 | sotrastaurin 0.023 | Tubastatin A 0.04 | [7] 0.061 | defactinib 0.094 | rucaparib -0.012 | [8] -0.071 | encorafenib 0.012 | [9] 0.056

Going on with the list:

SLC29A3 (UniProt Q9BZD2)
inactive: [1] 0.171 | volasertib 0.007 | [2] 0.05 | epoxomicin -0.048 | [4] 0.002 | [5] -0.161 | saracatinib 0.089 | sotrastaurin 0.056 | Tubastatin A 0.092 | [7] 0.105 | defactinib 0.013 | rucaparib -0.083 | [8] -0.018 | encorafenib -0.05 | [9] 0.055

SLC25A30 (UniProt Q5SVS4)
inactive: [1] 0.039 | volasertib 0.014 | [2] -0.045 | [10] 0.009 | [3] 0.003 | [4] -0.004 | [5] -0.116 | [6] 0.038 | saracatinib 0.133 | sotrastaurin 0.266 | alvocidib 0.025 | [7] 0.021 | defactinib -0.048 | rucaparib 0.037 | [8] -0.113 | encorafenib 0.092 | [9] -0.081

SLC2A13 (UniProt Q96QE2)
inactive: [1] 0.148 | volasertib 0.006 | epoxomicin 0.044 | [10] 0.046 | [3] -0.031 | [4] -0.07 | rosiglitazone 0.104 | [5] 0.081 | [6] -0.033 | saracatinib 0.062 | sotrastaurin -0.018 | alvocidib -0.007 | Tubastatin A -0.001 | [7] 0.085 | defactinib -0.093 | rucaparib 0.277 | [8] 0.033 | encorafenib -0.034 | [9] 0.025

SLC31A1 (UniProt O15431)
inactive: [1] 0.085 | volasertib 0.155 | epoxomicin 0.122 | [10] 0.01 | [3] 0.015 | [4] 0.009 | rosiglitazone -0.04 | [5] -0.189 | [6] 0.256 | saracatinib -0.036 | alvocidib 0.01 | Tubastatin A 0.031 | [7] -0.06 | defactinib -0.072 | rucaparib 0.109 | [8] 0.057 | encorafenib 0.058 | [9] -0.024

SLC25A23 isoform 3 (UniProt Q9BV35)
inactive: [1] -0.024 | volasertib 0.124 | [2] 0 | [10] -0.074 | [3] 0.026 | [4] 0.029 | rosiglitazone 0.237 | [5] 0.023 | [6] 0.026 | saracatinib -0.07 | sotrastaurin -0.101 | alvocidib -0.035 | Tubastatin A -0.008 | [7] -0.012 | defactinib 0.044 | rucaparib 0.047 | [8] -0.069 | encorafenib -0.076 | [9] -0.057

SLC25A35 (UniProt Q3KQZ1)
inactive: [1] -0.109 | volasertib 0.065 | [10] -0.025 | [3] -0.016 | [4] 0.002 | [5] 0.075 | [6] 0.033 | saracatinib 0.095 | alvocidib -0.036 | Tubastatin A -0.03 | [7] -0.065 | defactinib -0.089 | rucaparib -0.134 | [8] 0.013 | encorafenib 0.082 | [9] 0.039

SLC38A9 (UniProt Q8NBW4)
inactive: [1] -0.013 | volasertib -0.003 | [2] -0.022 | epoxomicin -0.02 | [3] 0.055 | [4] -0.039 | [5] 0.029 | [6] -0.197 | saracatinib 0.053 | sotrastaurin -0.184 | Tubastatin A -0.05 | [7] 0.025 | defactinib -0.038 | rucaparib -0.048 | [8] -0.073 | encorafenib -0.001 | [9] 0.001

SLC25A36 (UniProt Q96CQ1)
inactive: [1] -0.133 | volasertib 0.059 | [2] 0.045 | epoxomicin 0.026 | [3] -0.135 | [4] -0.217 | [5] 0.02 | [6] 0.046 | saracatinib 0.233 | sotrastaurin -0.057 | Tubastatin A -0.027 | [7] 0.013 | defactinib 0.011 | rucaparib 0.066 | [8] 0.016 | encorafenib -0.055 | [9] 0.162

SLC4A3 isoform 3 (UniProt P48751)
inactive: [2] -0.136 | rosiglitazone 0.081

SLC6A19 (UniProt Q695T7)
inactive: volasertib 0.078 | [5] 0.038 | saracatinib -0.04 | alvocidib -0.105 | [8] -0.099

SLC35A5 (UniProt Q9BS91)
inactive: epoxomicin 0.018 | [10] -0.017 | [5] -0.096 | saracatinib 0.024 | alvocidib 0.076 | Tubastatin A 0.085 | [7] -0.035 | [8] -0.161

SLC35B1 isoform 2 (UniProt P78383)
inactive: [1] 0.123 | [2] -0.017 | epoxomicin 0.066 | [4] 0.075 | [5] -0.111 | saracatinib 0.036 | sotrastaurin -0.03 | Tubastatin A 0.037 | [7] -0.003 | defactinib 0.026 | rucaparib -0.051 | [8] 0.011 | encorafenib 0.132 | [9] -0.127
